Source: patent US20120149631A1 (priority 2009, published 2012)
At least one peptide structure holds a part that was inferred or is arguable (an end, a ring closure or a residue). No end group written: not given here.

Test system: A. actinomycetemcomitans Y4

Substance | EC50
KRAKKFFKKLK-NH2 [ATRA-1A] | 1.07 µg/mL
KRFKKFFKKPK-NH2 [ATRA-1P] | 102 µg/mL
